Data reported in patent US20240308973A1, “PHOSPHODIESTERASE 3 (PDE3) INHIBITORS” (Zoetis Services LLC, priority 2023, published 2024).
For at least one compound, name, drawing or mass did not settle the structure.

System: human iCell cardiomyocytes
Assay: Human iPS cardiomyocyte contractility assay
Type: cell-based
Set-up: key: +: Statistically significant changes in contractility at the last time point (53 minutes) as defined by changes in mean % delta beat amplitude; *: Contractility changes at the last time point that were not significant from vehicle; significance was obtained at earlier time points
Conditions: 30 μM; last time point (53 minutes); mean % delta beat amplitude relative to vehicle (DMSO)
Procedure: Human iPS Cardiomyocyte Contractility Assay
Frozen human iCell® cardiomyocytes (FujiFilm® Cellular Dynamics Inc.) were thawed and plated in the center of each well of an Axion® Biosystems cytoview 24-well microelectrode array plate that was coated with human fibronectin in a 5-6 μL droplet at a density of 7-10×10^6 cells/mL. The cells were maintained in culture in a 37° C. humidified incubator at 5% CO2. After at least seven days in culture with maintenance media changes every 2-3 days, the cells were paced at 2 Hz for approximately 48 hours on the Axion® Biosystems Maestro Pro instrument using the field potential application in the Axis Navigator software before returning to the spontaneous beating for at least 10 minutes in the contractility application (i.e., Axion® Biosystems procedure for Positive Inotropy Protocol). […] Readings were taken at 3, 13, 23, 33, 43 and 53 minutes. […] Each compound was evaluated for the contractility response relative to the vehicle control (DMSO). […]
Myocardial contractility represents the innate ability of the heart muscle to contract. […] Cardiomyocyte contractibility of the compounds of the invention, as defined by changes in mean % delta beat amplitude, were determined to have a positive inotropic effect (i.e., a stronger cardiac muscle contraction force).

With `C[C@H]1CC(=O)NN=C1c1cc(Cl)c2c(c1)C(C)(C)NC2=O` [Example #51, (S)-7-chloro-3,3-dimethyl-5-(4-methyl-6-oxo-1,4,5,6-tetrahydropyridazin-3-yl)isoindolin-2-one] the Contractility was 51 (*).
